# Assay results reported in publication PMC12678531, “Cytosolic TOP3α facilitates mitochondrial DNA sensing by cGAS”.
# Sequences of proteins named here, by UniProt entry; tags and fusion partners are left off.
# UniProt Q8N884: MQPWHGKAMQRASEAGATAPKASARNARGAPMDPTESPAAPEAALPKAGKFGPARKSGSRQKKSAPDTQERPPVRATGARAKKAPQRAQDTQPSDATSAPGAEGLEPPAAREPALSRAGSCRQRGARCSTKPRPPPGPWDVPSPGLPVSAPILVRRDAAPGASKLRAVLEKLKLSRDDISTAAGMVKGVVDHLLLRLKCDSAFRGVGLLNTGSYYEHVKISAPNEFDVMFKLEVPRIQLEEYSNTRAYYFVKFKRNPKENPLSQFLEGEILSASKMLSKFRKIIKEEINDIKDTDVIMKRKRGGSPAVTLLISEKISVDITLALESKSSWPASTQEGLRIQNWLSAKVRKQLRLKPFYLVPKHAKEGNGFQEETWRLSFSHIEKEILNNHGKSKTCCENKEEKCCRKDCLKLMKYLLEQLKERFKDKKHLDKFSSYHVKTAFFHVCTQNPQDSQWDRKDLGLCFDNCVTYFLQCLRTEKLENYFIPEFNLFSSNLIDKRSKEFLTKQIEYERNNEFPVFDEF
# No constants are given. Whether binding was seen depends on the method and setting. Binding seen in cells or lysates may run through a third protein. Where a sequence is shown, tags or fusion partners need not be part of it.
# B1: EGFP tagged TOP3α (Topoisomerase 3α) (protein, UniProt Q13472 1-1001)
# chain: MIFPVARYALRWLRRPEDRAFSRAAMEMALRGVRKVLCVAEKNDAAKGIADLLSNGRMRRREGLSKFNKIYEFDYHLYGQNVTMVMTSVSGHLLAHDFQMQFRKWQSCNPLVLFEAEIEKYCPENFVDIKKTLERETRQCQALVIWTDCDREGENIGFEIIHVCKAVKPNLQVLRARFSEITPHAVRTACENLTEPDQRVSDAVDVRQELDLRIGAAFTRFQTLRLQRIFPEVLAEQLISYGSCQFPTLGFVVERFKAIQAFVPEIFHRIKVTHDHKDGIVEFNWKRHRLFNHTACLVLYQLCVEDPMATVVEVRSKPKSKWRPQALDTVELEKLASRKLRINAKETMRIAEKLYTQGYISYPRTETNIFPRDLNLTVLVEQQTPDPRWGAFAQSILERGGPTPRNGNKSDQAHPPIHPTKYTNNLQGDEQRLYEFIVRHFLACCSQDAQGQETTVEIDIAQERFVAHGLMILARNYLDVYPYDHWSDKILPVYEQGSHFQPSTVEMVDGETSPPKLLTEADLIALMEKHGIGTDATHAEHIETIKARMYVGLTPDKRFLPGHLGMGLVEGYDSMGYEMSKPDLRAELEADLKLICDGKKDKFVVLRQQVQKYKQVFIEAVAKAKKLDEALAQYFGNGTELAQQEDIYPAMPEPIRKCPQCNKDMVLKTKKNGGFYLSCMGFPECRSAVWLPDSVLEASRDSSVCPVCQPHPVYRLKLKFKRGSLPPTMPLEFVCCIGGCDDTLREILDLRFSGGPPRASQPSGRLQANQSLNRMDNSQHPQPADSRQTGSSKALAQTLPPPTAAGESNSVTCNCGQEAVLLTVRKEGPNRGRQFFKCNGGSCNFFLWADSPNPGAGGPPALAYRPLGASLGCPPGPGIHLGGFGNPGDGSGSGTSCLCSQPSVTRTVQKDGPNKGRQFHTCAKPREQQCGFFQWVDENTAPGTSGAPSWTGDRGRTLESEARSKRPRASSSDMGSTAKKPRKCSLCHQPGHTRPFCPQNR
# Molecular target: cGAS (human (endogenous in HMC3)) (UniProt Q8N884)
# Assay: co-IP; cytosolic components of HMC3 cells (0.025% digitonin, 50 mM Tris-HCl pH 7.5, 150 mM NaCl) expressing EGFP or EGFP tagged TOP3α for 1 day; endogenous cGAS precipitated with anti-cGAS beads; SDS-PAGE and immunoblotting
binder,measurement,value
B1,binding,no binding
